Several values for one entry are separate records, joined by “and”; a condition that tells them apart may be missing. Equal entries are not always repeated. In all, about 320,000 compounds went through this assay and about 22,000 (6.9%) were called active. Inconclusive results, whose numbers are uncertain, are shown with a selection of clear calls. Calls come from the whole dose curve; as a rule, active = well fitted inhibition curve with a large enough effect; inconclusive = small, poorly fitted or top-dose-only effect, or another doubt; inactive = no such curve, though single readings can be large or run the other way. Potencies of inconclusive entries are doubtful fits and often do not repeat.
Experiment: Primary qHTS for delayed death inhibitors of the malarial parasite plastid, 96 hour incubation
Conditions: P. falciparum luciferase reporter growth; series mostly up to 28.7 µM; activity change, negative = inhibition: at the top concentration
Outline: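 P. falciparum expressing integrated firefly luciferase grown in erythrocytes (2% hematocrit, 0.05% parasitemia final) with compounds for 96 hours at 37 C, 5% CO2. Growth inhibition read as loss of luminescence after adding luciferase detection reagent.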
% is set by controls: 0 for no effect and ±100 for the full control effect; potency is the fitted concentration of half-maximal effect.

Row | Structure (SMILES) | Potency | activity change, negative = inhibition
1 | c1ccc(-c2nn3c(-c4ccco4)nnc3s2)nc1 | inconclusive: 18.5 µM [inhibitor, single point] | 
2 | COc1ccc(OC)c(NC(=O)CN(c2ccc(C)cc2)S(=O)(=O)c2c(C)noc2C)c1 | active: 1.85 µM | 
3 | COc1cc(C)c(NC(=S)Nc2ccc(C)c(Cl)c2)cc1OC |  | inactive: 37%
4 | Cc1cc(S(=O)(=O)Nc2ccc(C(=O)NCC(c3ccco3)N3CCCC3)cc2)ccc1F (stereo not drawn) | inconclusive: 3.7 µM [inhibitor, partial curve, poor fit] | 
5 | NC(=O)C1CCN(Cc2nc3cc(C(F)(F)F)ccc3c(=O)[nH]2)CC1 |  | inactive: -0.409%
6 | COc1cc(NC(=O)CN2C(=O)NC(C)(CCC(C)C)C2=O)cc(OC)c1 (stereo not drawn) | inconclusive: 11.7 µM [inhibitor, single point] | 
7 | CC(=O)N1[C@H](C)C=C[C@]1(Cc1ccccc1)C(=O)NCCc1c[nH]c2ccccc12 | inconclusive: 13.1 µM [inhibitor, partial curve] | 
8 | COc1cccc(NS(=O)(=O)c2cc3[nH]c(=O)c(=O)[nH]c3cc2C)c1 | inconclusive: 7.38 µM [inhibitor, partial curve, poor fit] | 
9 | COC(=O)C(C)N(C#N)c1nc(C)nc(C)n1 (stereo not drawn) | inconclusive: 13.1 µM [inhibitor, partial curve] | 
10 | CC(C)CC(c1nnnn1CCc1ccccc1)N1CCC(C(N)=O)CC1 (stereo not drawn) | active: 9.28 µM | 
11 | CCOc1ccc(-n2c(COc3ccc(C)cc3)nnc2SCC(N)=O)cc1 | inconclusive: 14.7 µM [inhibitor, partial curve, poor fit] | 
12 | O=C(O)COc1ccc(Br)cc1/C=N\Nc1ccccn1 | inconclusive: 3.29 µM [inhibitor, partial curve] | 
13 | CN(C)C(=O)CN1C(=O)NC2(CCc3ccccc32)C1=O (stereo not drawn) |  | inactive: 34.8%
14 | O=C1CCCCN1CCC(=O)N1CCCC(N2CCN(c3ccccc3)CC2)C1 (stereo not drawn) |  | inactive: 43.9%
15 | C/C1=C\CCC2C(/C=C(\C)CC1)OC(=O)C2CN1CCCCC1 (stereo not drawn) | inconclusive: 10.4 µM [inhibitor, partial curve, poor fit] | 
16 | C=CCc1ccc(OCCOCCOc2ccc(C)cc2[N+](=O)[O-])c(OC)c1 | inconclusive: 0.0029 µM [inhibitor, full curve, poor fit] | 
17 | COc1ccc(-c2cc(C(=O)NC(C)c3ccccn3)c3ccccc3n2)cc1OC (stereo not drawn) | inconclusive: 13.1 µM [inhibitor, single point] | 
18 | CCCn1c(C)nc2c(c1=O)c1nc3ccccc3nc1n2CCC1=CCCCC1 | inconclusive: 1.17 µM [inhibitor, full curve, poor fit] | 
19 | O=C(N/N=C/c1ccc(F)cc1)c1sccc1OCc1ccc(F)cc1 | inconclusive: 5.22 µM [inhibitor, partial curve] | 
20 | CCc1ccc(OCC(=O)NC(NC(=S)Nc2ccc(Cl)cc2)C(Cl)(Cl)Cl)cc1 (stereo not drawn) | active: 13.1 µM | 
21 | CCOC(=O)C1CCCN(C(=O)c2ccco2)C1 (stereo not drawn) | inconclusive: 1.65 µM [inhibitor, partial curve, poor fit] | 
22 | Cc1ccc(-c2nnc(SCC(=O)NCC3CCCO3)nc2-c2ccc(C)cc2)cc1 (stereo not drawn) | inconclusive: 14.7 µM [inhibitor, partial curve, poor fit] | 
23 | Cc1ccc(C)c(NC(=S)N2CCC(N(C)CC3CCCO3)CC2)c1 (stereo not drawn) | inconclusive: 18.5 µM [inhibitor, single point] | 

Quoted from the results shown, 21 compounds:
Row | Structure (SMILES) | Potency | activity change, negative = inhibition
1 | c1ccc(-c2nn3c(-c4ccco4)nnc3s2)nc1 | inconclusive: 18.5 µM [inhibitor, single point] | 
2 | COc1ccc(OC)c(NC(=O)CN(c2ccc(C)cc2)S(=O)(=O)c2c(C)noc2C)c1 | active: 1.85 µM | 
3 | COc1cc(C)c(NC(=S)Nc2ccc(C)c(Cl)c2)cc1OC |  | inactive: 37%
4 | Cc1cc(S(=O)(=O)Nc2ccc(C(=O)NCC(c3ccco3)N3CCCC3)cc2)ccc1F (stereo not drawn) | inconclusive: 3.7 µM [inhibitor, partial curve, poor fit] | 
5 | NC(=O)C1CCN(Cc2nc3cc(C(F)(F)F)ccc3c(=O)[nH]2)CC1 |  | inactive: -0.409%
6 | COc1cc(NC(=O)CN2C(=O)NC(C)(CCC(C)C)C2=O)cc(OC)c1 (stereo not drawn) | inconclusive: 11.7 µM [inhibitor, single point] | 
7 | CC(=O)N1[C@H](C)C=C[C@]1(Cc1ccccc1)C(=O)NCCc1c[nH]c2ccccc12 | inconclusive: 13.1 µM [inhibitor, partial curve] | 
8 | COc1cccc(NS(=O)(=O)c2cc3[nH]c(=O)c(=O)[nH]c3cc2C)c1 | inconclusive: 7.38 µM [inhibitor, partial curve, poor fit] | 
9 | COC(=O)C(C)N(C#N)c1nc(C)nc(C)n1 (stereo not drawn) | inconclusive: 13.1 µM [inhibitor, partial curve] | 
10 | CC(C)CC(c1nnnn1CCc1ccccc1)N1CCC(C(N)=O)CC1 (stereo not drawn) | active: 9.28 µM | 
11 | CCOc1ccc(-n2c(COc3ccc(C)cc3)nnc2SCC(N)=O)cc1 | inconclusive: 14.7 µM [inhibitor, partial curve, poor fit] | 
12 | O=C(O)COc1ccc(Br)cc1/C=N\Nc1ccccn1 | inconclusive: 3.29 µM [inhibitor, partial curve] | 
13 | CN(C)C(=O)CN1C(=O)NC2(CCc3ccccc32)C1=O (stereo not drawn) |  | inactive: 34.8%
14 | O=C1CCCCN1CCC(=O)N1CCCC(N2CCN(c3ccccc3)CC2)C1 (stereo not drawn) |  | inactive: 43.9%
15 | C/C1=C\CCC2C(/C=C(\C)CC1)OC(=O)C2CN1CCCCC1 (stereo not drawn) | inconclusive: 10.4 µM [inhibitor, partial curve, poor fit] | 
16 | C=CCc1ccc(OCCOCCOc2ccc(C)cc2[N+](=O)[O-])c(OC)c1 | inconclusive: 0.0029 µM [inhibitor, full curve, poor fit] | 
17 | COc1ccc(-c2cc(C(=O)NC(C)c3ccccn3)c3ccccc3n2)cc1OC (stereo not drawn) | inconclusive: 13.1 µM [inhibitor, single point] | 
18 | CCCn1c(C)nc2c(c1=O)c1nc3ccccc3nc1n2CCC1=CCCCC1 | inconclusive: 1.17 µM [inhibitor, full curve, poor fit] | 
19 | O=C(N/N=C/c1ccc(F)cc1)c1sccc1OCc1ccc(F)cc1 | inconclusive: 5.22 µM [inhibitor, partial curve] | 
20 | CCc1ccc(OCC(=O)NC(NC(=S)Nc2ccc(Cl)cc2)C(Cl)(Cl)Cl)cc1 (stereo not drawn) | active: 13.1 µM | 
21 | CCOC(=O)C1CCCN(C(=O)c2ccco2)C1 (stereo not drawn) | inconclusive: 1.65 µM [inhibitor, partial curve, poor fit] | 

Next records

Row | Structure (SMILES) | Potency | activity change, negative = inhibition
24 | Cc1ccc2nc(N3CCN(c4ccccc4)CC3)c(C=O)c(=O)n2c1 | inconclusive: 0.0052 µM [inhibitor, full curve, poor fit] | 
25 | O=C(COC(=O)c1ccccn1)Nc1nc(-c2ccccc2)cs1 | inconclusive: 7.38 µM [inhibitor, partial curve, poor fit] | 
26 | CCOc1ccc(C(CC(=O)O)NC(=O)COc2ccccc2)cc1OC (stereo not drawn) | inconclusive: 0.738 µM [inhibitor, partial curve, poor fit] | 
27 | CC(=O)Nc1ccc2c(COC(=O)[C@H](C)N3C(=O)C4CCCCC4C3=O)cc(=O)oc2c1 (stereo partly drawn) |  | inactive: -9.89%
28 | C(=N\Nc1ccc2nncn2n1)/c1ccccn1 | active: 9.28 µM | 
29 | Cn1c(SCc2cccc(C(F)(F)F)c2)nnc1-c1ccco1 | inconclusive: 11.7 µM [inhibitor, partial curve] | 
30 | Cc1ccc2cc(C#N)c(NCCCNC(=O)C3CCCO3)nc2c1 (stereo not drawn) | inconclusive: 18.5 µM [inhibitor, single point] | 
31 | CCCOc1ccc(-c2csc3ncn(Cc4ccc(C(=O)O)cc4)c(=O)c23)cc1 | inconclusive: 20.8 µM [inhibitor, partial curve, poor fit] | 
32 | COc1cc(C(c2sc3nc(C)nn3c2O)N2CCN(c3ccccc3)CC2)cc(OC)c1OC (stereo not drawn) | inconclusive: 16.5 µM [inhibitor, partial curve, poor fit] | 
33 | COc1ccc(/C=N/N=C2\CC3CCC2(C)C3(C)C)cc1O (stereo not drawn) |  | inactive: 12.6%
34 | COc1ccc(C(=O)N/C(=C\c2ccco2)C(=O)OCc2ccco2)cc1 |  | inactive: -15.1%
35 | CNc1ccc2nnc(C(F)(F)C(F)(F)C(F)(F)F)n2n1 |  | inactive: -15.5%
36 | CCCOc1ccc(N2C(=O)CC(N3CCN(c4ccccc4OC)CC3)C2=O)cc1 (stereo not drawn) |  | inactive: -4.74%
37 | CC(=O)n1c(Cl)c(NC(=O)CCl)c2ccccc21 | active: 2.08 µM | 
38 | Cc1cccc(N2CCN(C(=O)CCC(=O)N3CCOc4ccc(Cl)cc43)CC2C)c1 (stereo not drawn) | active: 9.28 µM | 
39 | CCSc1nnc(NC(=O)CSc2nc(C)cc(C)n2)s1 | inconclusive: 4.65 µM [inhibitor, partial curve, poor fit] | 
40 | O=C(c1ccc(S(=O)(=O)Cc2cc(F)ccc2F)c([N+](=O)[O-])c1)N1CCCC1 | inconclusive: 6.57 µM [inhibitor, partial curve, poor fit] | 
41 | Cc1cc(C)c(C(=O)C(C)OC(=O)c2ccccn2)cc1C (stereo not drawn) |  | inactive: -16.4%
42 | CN1CCN(CCCNC(=O)c2ccc(/C=C3\Sc4ccccc4N(Cc4ccc(F)cc4)C3=O)cc2)CC1 | inconclusive: 13.1 µM [inhibitor, single point] | 
43 | CCCN(CC(=O)Nc1ccccc1C)C(=O)c1ccc(-c2ccccc2)cc1 | inconclusive: 18.5 µM [inhibitor, single point] | 
44 | COc1ccc(C(=O)Nc2ccc3nc(N4CCOCC4)sc3c2)cc1OC | inconclusive: 6.57 µM [inhibitor, partial curve, poor fit] | 
45 | COc1ccc(Cn2nnnc2C(c2cc3ccc(OC)cc3[nH]c2=O)N2CCC(C)CC2)cc1 (stereo not drawn) | active: 9.28 µM | 
46 | O[C@@H](c1cc(C(F)(F)F)nc2c(C(F)(F)F)cccc12)[C@H]1CCCCN1 | active: 33.8 nM and active: 14.7 nM | 

Row | Structure (SMILES) | Potency | activity change, negative = inhibition
47 | CN(C)C(=O)c1ccc(Nc2ncnc3sc4c(c23)CCCCC4)cc1 | inconclusive: 10.4 µM [inhibitor, partial curve] | 
48 | NS(=O)(=O)c1ccc(CNC(=O)Cn2nc(C(F)F)cc2C(F)F)cc1 |  | inactive: -14.2%
49 | Cc1cccc(C(=O)N2CCc3cc(-c4nc(NC(=O)Cn5nnc6ccccc6c5=O)sc4C)ccc32)c1 |  | inactive: 55.7%
50 | COc1ccccc1NC(=O)Cn1nc(C(F)(F)F)c2c1CCCC2 | active: 2.08 µM | 
51 | O=C(COC(=O)CN1C(=O)NC2(CCCC2)C1=O)Nc1c(Cl)cccc1C(F)(F)F |  | inactive: 19.4%
52 | NS(=O)(=O)c1cc2c(cc1C(F)(F)F)NC(Cc1ccccc1)NS2(=O)=O (stereo not drawn) |  | inactive: -4.91%
53 | O=S(=O)(Cc1ccccc1)N1CCN(c2ncccn2)CC1 |  | inactive: 8.68%
54 | CCOC(=O)Cn1c2c(c(=N)c3ccccc31)CCC2 | active: 0.37 µM | 
55 | Cc1ccc(NNC(=O)C(O)(c2cccc(C(F)(F)F)c2)c2cccc(C(F)(F)F)c2)cc1 | inconclusive: 10.4 µM [inhibitor, single point] | 
56 | O=C(O)C1C2CCC(O2)C1C(=O)NCCC1=CCCCC1 (stereo not drawn) | inconclusive: 18.5 µM [inhibitor, partial curve, poor fit] | 
57 | O=C(COC(=O)/C=C/c1ccc(S(=O)(=O)N2CCc3ccccc32)cc1)NC1CCS(=O)(=O)C1 (stereo not drawn) | inconclusive: 2.33 µM [inhibitor, single point] | 
58 | CC1CN(C2CCN(C(=O)c3cccc(Cl)c3)CC2)CC(C)O1 (stereo not drawn) | inconclusive: 23.3 µM [inhibitor, partial curve, poor fit] | 
59 | Cc1onc(-c2ccccc2Cl)c1C(=O)Nc1ccccc1O |  | inactive: -17.6%
60 | CC(NC(=O)CNC(=O)c1sc2ccccc2c1Cl)c1cccnc1 (stereo not drawn) |  | inactive: 30.3%
61 | CCOC(=O)C1=C(C)NC(C)=C(C(=O)OCC)C1C(=O)OCC(=O)N1CCCCC1C (stereo not drawn) | inconclusive: 18.5 µM [inhibitor, single point] | 
62 | O=C(COC(=O)CCc1ccc(S(=O)(=O)N2CCOCC2)cc1)NC(=O)NC1CCCCC1 |  | inactive: 3.84%
63 | CCOC(=O)C(Sc1cc(-c2ccccc2)nc2ncnn12)C(C)=O (stereo not drawn) | inconclusive: 18.5 µM [inhibitor, single point] | 
64 | CCCCc1c(C)[nH]c(C(=O)OCC)c1C | inconclusive: 0.329 µM [inhibitor, full curve, poor fit] | 
65 | COCCNC(=O)C(c1ccc(O)cc1)N(C(=O)CCC(=O)Nc1nccs1)c1cccc(C)c1 (stereo not drawn) | inconclusive: 6.57 µM [inhibitor, partial curve, poor fit] | 
66 | COc1ccc(C(=O)NNC(=O)C2CCCN(C3CC(=O)N(c4ccccc4)C3=O)C2)cc1 (stereo not drawn) |  | inactive: 1.57%
67 | Cn1c(=O)[nH]c(=O)c2c1nc(N1CCOCC1)n2CC(=O)c1ccccc1 | inconclusive: 13.1 µM [inhibitor, single point] | 
68 | COc1ccc(CN(C)C(=O)c2cc(S(=O)(=O)NCc3ccccc3)ccc2C)c(OC)c1 | inconclusive: 10.4 µM [inhibitor, single point] | 
